These are yes or no findings as the source states them, for the method shown. Binding seen in cells or lysates may run through a third protein. A yes stands for co-enrichment or nearness to the bait. Other partners may have been found. Tags and fused reporters may be left off the sequences shown.
These substances were tested against T1, GFP-SNX32 WT (UniProt Q86XE0) (assay: affinity purification with mass spectrometry).
T1 sequence: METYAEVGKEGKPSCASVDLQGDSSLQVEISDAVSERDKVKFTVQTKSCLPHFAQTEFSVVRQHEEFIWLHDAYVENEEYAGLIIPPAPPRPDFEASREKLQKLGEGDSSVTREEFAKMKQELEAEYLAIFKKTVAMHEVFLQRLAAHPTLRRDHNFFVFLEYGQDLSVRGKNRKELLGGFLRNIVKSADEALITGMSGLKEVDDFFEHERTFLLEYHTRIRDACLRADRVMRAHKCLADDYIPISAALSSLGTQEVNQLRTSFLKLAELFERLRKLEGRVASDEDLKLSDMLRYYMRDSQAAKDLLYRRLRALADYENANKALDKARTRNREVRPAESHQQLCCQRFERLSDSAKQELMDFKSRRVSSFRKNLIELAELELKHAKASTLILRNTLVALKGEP

The chains behind the UniProt entries cited, without tags or fusion partners. Residues count along the entry.
UniProt P11717, residues 41-2491: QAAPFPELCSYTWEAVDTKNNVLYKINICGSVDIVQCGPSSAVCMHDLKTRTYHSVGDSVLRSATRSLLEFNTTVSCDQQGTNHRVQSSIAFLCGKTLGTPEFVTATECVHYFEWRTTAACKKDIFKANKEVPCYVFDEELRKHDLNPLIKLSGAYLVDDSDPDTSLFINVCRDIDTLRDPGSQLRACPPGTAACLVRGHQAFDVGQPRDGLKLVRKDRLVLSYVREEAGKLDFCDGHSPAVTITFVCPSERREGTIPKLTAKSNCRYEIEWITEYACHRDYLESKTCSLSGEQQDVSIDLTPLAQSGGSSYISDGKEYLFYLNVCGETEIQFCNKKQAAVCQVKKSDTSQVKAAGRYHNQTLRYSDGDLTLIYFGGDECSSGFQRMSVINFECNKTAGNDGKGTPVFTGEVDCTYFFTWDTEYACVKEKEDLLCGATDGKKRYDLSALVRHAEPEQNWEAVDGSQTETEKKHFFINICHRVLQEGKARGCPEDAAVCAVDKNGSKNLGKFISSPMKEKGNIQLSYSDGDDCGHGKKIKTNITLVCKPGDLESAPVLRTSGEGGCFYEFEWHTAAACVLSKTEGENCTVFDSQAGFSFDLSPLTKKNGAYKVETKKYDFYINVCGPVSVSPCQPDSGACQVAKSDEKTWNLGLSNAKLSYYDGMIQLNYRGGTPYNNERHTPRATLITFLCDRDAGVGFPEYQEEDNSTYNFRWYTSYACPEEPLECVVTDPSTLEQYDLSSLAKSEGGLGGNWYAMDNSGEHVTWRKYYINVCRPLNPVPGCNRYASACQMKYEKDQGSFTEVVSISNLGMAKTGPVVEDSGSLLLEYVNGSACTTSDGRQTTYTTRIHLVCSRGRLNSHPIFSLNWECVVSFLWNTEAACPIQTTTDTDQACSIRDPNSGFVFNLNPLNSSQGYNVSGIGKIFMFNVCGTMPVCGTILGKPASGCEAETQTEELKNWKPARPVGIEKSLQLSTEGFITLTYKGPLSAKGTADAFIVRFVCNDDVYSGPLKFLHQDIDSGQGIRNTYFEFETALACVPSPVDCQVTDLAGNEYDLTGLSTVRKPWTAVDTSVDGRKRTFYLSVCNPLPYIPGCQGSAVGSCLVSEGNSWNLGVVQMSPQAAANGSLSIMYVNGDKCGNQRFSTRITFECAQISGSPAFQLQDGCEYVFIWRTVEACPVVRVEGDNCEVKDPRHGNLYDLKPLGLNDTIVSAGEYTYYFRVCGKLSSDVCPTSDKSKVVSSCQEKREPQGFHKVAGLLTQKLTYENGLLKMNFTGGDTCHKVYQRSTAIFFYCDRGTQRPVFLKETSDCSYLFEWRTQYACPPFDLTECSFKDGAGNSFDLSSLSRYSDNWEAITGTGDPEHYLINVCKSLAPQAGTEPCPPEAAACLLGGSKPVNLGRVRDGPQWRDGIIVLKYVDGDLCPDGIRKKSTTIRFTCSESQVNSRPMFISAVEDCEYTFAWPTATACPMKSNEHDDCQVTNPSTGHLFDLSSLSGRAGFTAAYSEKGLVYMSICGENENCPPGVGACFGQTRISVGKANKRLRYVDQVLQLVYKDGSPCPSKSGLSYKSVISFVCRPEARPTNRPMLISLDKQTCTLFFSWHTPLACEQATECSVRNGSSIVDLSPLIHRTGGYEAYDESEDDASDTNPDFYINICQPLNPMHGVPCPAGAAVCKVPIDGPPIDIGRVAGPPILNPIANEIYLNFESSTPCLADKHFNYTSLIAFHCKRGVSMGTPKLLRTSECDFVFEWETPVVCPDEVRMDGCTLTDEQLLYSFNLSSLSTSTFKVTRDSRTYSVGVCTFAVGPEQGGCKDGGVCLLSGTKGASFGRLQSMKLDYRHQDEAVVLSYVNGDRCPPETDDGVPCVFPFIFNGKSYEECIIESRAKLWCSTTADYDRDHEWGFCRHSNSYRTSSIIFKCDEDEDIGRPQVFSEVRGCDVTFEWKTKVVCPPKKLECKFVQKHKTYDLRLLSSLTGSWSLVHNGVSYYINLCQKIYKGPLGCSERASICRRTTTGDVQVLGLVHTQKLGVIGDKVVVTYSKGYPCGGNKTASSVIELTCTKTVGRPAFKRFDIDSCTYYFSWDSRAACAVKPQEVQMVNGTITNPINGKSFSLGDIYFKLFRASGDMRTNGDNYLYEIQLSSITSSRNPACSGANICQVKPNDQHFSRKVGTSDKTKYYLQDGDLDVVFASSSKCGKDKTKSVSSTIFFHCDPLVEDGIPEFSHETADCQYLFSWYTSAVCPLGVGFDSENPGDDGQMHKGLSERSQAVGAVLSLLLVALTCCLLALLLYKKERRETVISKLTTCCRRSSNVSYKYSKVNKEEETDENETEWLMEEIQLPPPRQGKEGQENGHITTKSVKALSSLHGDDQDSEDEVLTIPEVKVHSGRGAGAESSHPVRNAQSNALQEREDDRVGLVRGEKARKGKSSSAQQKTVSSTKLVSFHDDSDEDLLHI
UniProt P33176: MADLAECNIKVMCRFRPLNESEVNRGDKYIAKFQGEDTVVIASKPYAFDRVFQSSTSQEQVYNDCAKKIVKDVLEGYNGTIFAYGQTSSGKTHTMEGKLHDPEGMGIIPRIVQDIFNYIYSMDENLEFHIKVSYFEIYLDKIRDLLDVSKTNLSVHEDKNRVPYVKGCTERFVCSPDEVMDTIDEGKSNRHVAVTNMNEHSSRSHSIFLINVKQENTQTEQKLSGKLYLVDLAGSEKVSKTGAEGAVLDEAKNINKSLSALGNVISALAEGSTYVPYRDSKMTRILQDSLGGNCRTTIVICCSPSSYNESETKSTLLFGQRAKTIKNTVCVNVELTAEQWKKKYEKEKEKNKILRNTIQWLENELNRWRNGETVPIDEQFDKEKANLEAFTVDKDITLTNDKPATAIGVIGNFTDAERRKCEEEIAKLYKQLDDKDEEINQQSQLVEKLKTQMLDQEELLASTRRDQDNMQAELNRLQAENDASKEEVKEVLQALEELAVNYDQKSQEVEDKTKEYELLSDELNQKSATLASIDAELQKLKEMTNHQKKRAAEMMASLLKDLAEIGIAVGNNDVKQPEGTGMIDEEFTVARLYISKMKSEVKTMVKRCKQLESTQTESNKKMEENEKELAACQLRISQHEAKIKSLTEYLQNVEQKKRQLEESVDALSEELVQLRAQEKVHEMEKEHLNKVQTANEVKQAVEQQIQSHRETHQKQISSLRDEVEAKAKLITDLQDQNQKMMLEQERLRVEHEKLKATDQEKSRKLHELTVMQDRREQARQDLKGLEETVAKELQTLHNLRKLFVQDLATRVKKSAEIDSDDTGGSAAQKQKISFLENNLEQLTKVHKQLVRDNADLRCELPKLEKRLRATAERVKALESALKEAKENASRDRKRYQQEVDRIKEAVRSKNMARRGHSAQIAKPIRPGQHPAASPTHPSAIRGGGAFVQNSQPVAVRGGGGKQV

binding, binds:
Basigin (from UniProt P35613-2) (receptor)
Cation Independent Mannose-6-Phosphate Receptor (from UniProt P11717 41-2491)
kinesin-1 heavy chain (from UniProt P33176 1-963)
